Source: PubChem BioAssay AID1259271 (Sanger Institute, 2017)
Screen: 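Follow-up check of kinase genes for lethal pairing with a drug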 (follow-up of hits). Cells: RKO colorectal cancer cells. Knock-down reagent: single siRNA against human genes. Conditions: anchor drug added to each siRNA well, cetuximab 5 µg/ml, trametinib 10 nM or BYL719 1 µM, compared with DMSO vehicle; exposure length not given. Read-out: 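Survival of cells relative to control pool 2 (non-targeting), replicate average, plus a synergy score for each anchor drug (trametinib 10 nM, cetuximab 5 µg/ml, BYL719 1 µM) compared with DMSO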. Direction: synergy score with BYL719 and synergy score with cetuximab and synergy score with trametinib: higher = stronger synthetic lethality with the drug. Active means: 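Any anchor drug giving synergy above 0.10 makes the siRNA a hit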. Meaning of the calls: active = synergy with at least one drug; inactive = no synergy with any drug.
Here is a random part of 160 reagents. 124 of all reagents (78%) were called active. 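Each row is one of four siRNAs per gene; gene-level confirmation, requiring two siRNAs in several cell lines, is not included.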 Unmarked entries are inactive. The numbers tell different reagents against one gene apart. Further read-outs or replicates are left out here. Not stated in the record: the amount of reagent, the time to read-out.

PRAG1 (PEAK1 related, kinase-activating pseudokinase 1) #1 | synergy score with BYL719: 0.0763 (active); synergy score with cetuximab: 0.233; synergy score with trametinib: 0.174
PRAG1 (PEAK1 related, kinase-activating pseudokinase 1) #2 | synergy score with BYL719: 0.236 (active); synergy score with cetuximab: 0.112; synergy score with trametinib: 0.259
PRAG1 (PEAK1 related, kinase-activating pseudokinase 1) #3 | synergy score with BYL719: 0.00971; synergy score with cetuximab: 0.0273; synergy score with trametinib: 0.0879
PRAG1 (PEAK1 related, kinase-activating pseudokinase 1) #4 | synergy score with BYL719: 0.178 (active); synergy score with cetuximab: 0.286; synergy score with trametinib: 0.231
GUCY2D (guanylate cyclase 2D, retinal) #1 | synergy score with BYL719: -0.0284 (active); synergy score with cetuximab: 0.122; synergy score with trametinib: 0.151
GUCY2D (guanylate cyclase 2D, retinal) #2 | synergy score with BYL719: 0.0831 (active); synergy score with cetuximab: 0.0926; synergy score with trametinib: 0.15
GUCY2D (guanylate cyclase 2D, retinal) #3 | synergy score with BYL719: -0.215 (active); synergy score with cetuximab: -0.00298; synergy score with trametinib: 0.161
GUCY2D (guanylate cyclase 2D, retinal) #4 | synergy score with BYL719: -0.321; synergy score with cetuximab: -0.00987; synergy score with trametinib: -0.0709
CRIM1 (cysteine rich transmembrane BMP regulator 1) #1 | synergy score with BYL719: -0.0194 (active); synergy score with cetuximab: -0.00112; synergy score with trametinib: 0.131
CRIM1 (cysteine rich transmembrane BMP regulator 1) #2 | synergy score with BYL719: -0.197; synergy score with cetuximab: 0.0623; synergy score with trametinib: 0.0959
CRIM1 (cysteine rich transmembrane BMP regulator 1) #3 | synergy score with BYL719: -0.13 (active); synergy score with cetuximab: -0.0717; synergy score with trametinib: 0.12
CRIM1 (cysteine rich transmembrane BMP regulator 1) #4 | synergy score with BYL719: -0.0529; synergy score with cetuximab: 0.00547; synergy score with trametinib: 0.0648
IRAK1 (interleukin 1 receptor associated kinase 1) #1 | synergy score with BYL719: -0.0958 (active); synergy score with cetuximab: -0.0239; synergy score with trametinib: 0.138
IRAK1 (interleukin 1 receptor associated kinase 1) #2 | synergy score with BYL719: -0.139; synergy score with cetuximab: -0.121; synergy score with trametinib: -0.186
IRAK1 (interleukin 1 receptor associated kinase 1) #3 | synergy score with BYL719: 0.118 (active); synergy score with cetuximab: 0.0581; synergy score with trametinib: 0.0893
IRAK1 (interleukin 1 receptor associated kinase 1) #4 | synergy score with BYL719: 0.192 (active); synergy score with cetuximab: -0.122; synergy score with trametinib: 0.0486
IRAK3 (interleukin 1 receptor associated kinase 3) #1 | synergy score with BYL719: -0.12 (active); synergy score with cetuximab: -0.146; synergy score with trametinib: 0.131
IRAK3 (interleukin 1 receptor associated kinase 3) #2 | synergy score with BYL719: -0.15; synergy score with cetuximab: -0.0554; synergy score with trametinib: 0.0567
IRAK3 (interleukin 1 receptor associated kinase 3) #3 | synergy score with BYL719: -0.0135 (active); synergy score with cetuximab: -0.00485; synergy score with trametinib: 0.105
IRAK3 (interleukin 1 receptor associated kinase 3) #4 | synergy score with BYL719: 0.015 (active); synergy score with cetuximab: -0.0542; synergy score with trametinib: 0.128

Laid out differently: entries from further up.
GUCY2D (guanylate cyclase 2D, retinal) #3
- synergy score with BYL719: -0.215 (active)
- synergy score with cetuximab: -0.00298
- synergy score with trametinib: 0.161

GUCY2D (guanylate cyclase 2D, retinal) #4
- synergy score with BYL719: -0.321
- synergy score with cetuximab: -0.00987
- synergy score with trametinib: -0.0709
